# Experimental data: PubChem BioAssay AID1508597 (Cure First, 2020)
# Screen: 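Knock-downs altering ovarian cancer cell survival with or without PARP inhibitor rucaparib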 (primary screen)
# System: human ovarian carcinoma lines grown from tumours: OCI-P5x (papillary serous) and OCI-C5x (clear cell)
# Knock-down reagent: siRNA pool against human genes, 1.25 pmol siRNA per well
# Duration: 72 h or 96 h, depending on the cell culture
# Challenge: rucaparib 20 µM (about IC30) or vehicle, present until read-out
# Rucaparib or vehicle: Vehicle
# Cell line: OCI-P5x (serous)
# Read-out: 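ATP luminescence measured at 72 or 96 h according to the culture, then normalised and expressed as percent viability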
# Reading the numbers: viability, normalised: higher = more viable cells remaining
# Call rule: 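a well counts as a hit if its normalised viability is under 80 percent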
# Meaning of the calls: active = viability under 80%; inactive = viability 80% or more
# Shown is an unselected part of the about 2,100 reagents, in one setting of the screen. 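Calls flag viability under 80% in either arm, not effects specific to rucaparib; the reference for percent is not stated.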 Not given: the 100% reference.
target gene,technical replicate,"viability, normalised (%)",activity call
NPR1,1,95.1,inactive
NPR1,2,89.5,inactive
NPR1,3,92.6,inactive
ADGRA3,1,89.6,inactive
ADGRA3,2,74.6,active
ADGRA3,3,69.7,active
EZH1,1,45.1,active
EZH1,2,46.8,active
EZH1,3,48.2,active
VPS72,1,61.9,active
VPS72,2,80,inactive
VPS72,3,68.6,active
FOXC1,1,72.4,active
FOXC1,2,74.5,active
FOXC1,3,77,active

Laid out differently: results already given
target gene | technical replicate | viability, normalised (%) | activity call
EZH1 | 1 | 45.1 | active
EZH1 | 2 | 46.8 | active
EZH1 | 3 | 48.2 | active

The results go on.
target gene,technical replicate,"viability, normalised (%)",activity call
UBN1,1,56.1,active
UBN1,2,58.2,active
UBN1,3,36,active
NBL1,1,92.5,inactive
NBL1,2,80.5,inactive
NBL1,3,84.2,inactive
CSNK1A1,1,65.8,active
CSNK1A1,2,77.7,active
CSNK1A1,3,67.2,active
